Test results from doi:10.1101/2024.04.18.590116 (bioRxiv, 2024).
Results are given in words; binding and its absence hold for the method and conditions named. For part of these data: In cells and extracts the contact can be indirect. Some results given as binding are weak or reduced against the parent protein; the word gives no strength. Sequences can lack the tags named with a protein. Values belong to the binder of their own block, whether it stands above or below them.

Tests used:
[1] = target: T1, KRP3 fused to the GAL4 DNA binding domain (rice (Oryza sativa)) (UniProt Q2R185); experiment: two-hybrid
T1 sequence: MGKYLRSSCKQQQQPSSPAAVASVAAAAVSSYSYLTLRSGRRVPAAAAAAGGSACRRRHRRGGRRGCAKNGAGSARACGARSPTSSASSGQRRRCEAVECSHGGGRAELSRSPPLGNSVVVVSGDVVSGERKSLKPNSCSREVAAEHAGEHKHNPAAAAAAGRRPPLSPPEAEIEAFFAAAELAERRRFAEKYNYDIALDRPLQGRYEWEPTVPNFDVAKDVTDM

[2] = target: T2, KRP3 cloned with the C-terminal domain of firefly luciferase (rice (Oryza sativa)) (UniProt Q2R185); experiment: split reporter
T2 sequence: T1 sequence

[3] = target: T3, KRP3 cloned with nYFP fraction (rice (Oryza sativa)) (UniProt Q2R185); experiment: split reporter
T3 sequence: T1 sequence

binding [1]: binds
B1: MPK3 fused to the GAL4 activation domain (enzyme, UniProt Q10N20 1-369)
chain: MDGAPVAEFRPTMTHGGRYLLYDIFGNKFEVTNKYQPPIMPIGRGAYGIVCSVMNFETREMVAIKKIANAFNNDMDAKRTLREIKLLRHLDHENIIGIRDVIPPPIPQAFNDVYIATELMDTDLHHIIRSNQELSEEHCQYFLYQILRGLKYIHSANVIHRDLKPSNLLLNANCDLKICDFGLARPSSESDMMTEYVVTRWYRAPELLLNSTDYSAAIDVWSVGCIFMELINRQPLFPGRDHMHQMRLITEVIGTPTDDELGFIRNEDARKYMRHLPQYPRRTFASMFPRVQPAALDLIERMLTFNPLQRITVEEALDHPYLERLHDIADEPICLEPFSFDFEQKALNEDQMKQLIFNEAIEMNPNIRY

binding [2]: binds
B2: MPK3 cloned with the N-terminal domain of firefly luciferase (enzyme, UniProt Q10N20 1-369)
chain: B1 chain

binding [3]: binds
B3: MPK3 cloned with cYFP fraction (enzyme, UniProt Q10N20 1-369)
chain: B1 chain
